This test concerns the target human Serum/Glucocorticoid Regulated Kinase 1 (SGK1), SGK1 (gene 6446) (UniProt O00141). Kind of test: NVS_ENZ_hSGK1: NovaScreen (NVS) Enzymatic Assay for human Serum/Glucocorticoid Regulated Kinase 1 (SGK1). As for the experimental part: NVS_ENZ_hSGK1 is a biochemical, single-readout assay that uses extracted gene-proteins in a cell-free assay. Measurements were taken 1 hour after chemical dosing in a 96-well plate.NVS_ENZ_hSGK1 is one of one assay component(s) measured or calculated from the NVS_ENZ_hSGK1 assay. It is designed to make measurements of enzyme activity, a form of enzyme reporter, as detected with fluorescence intensity signals by Fluorescence and electrophoretic mobility shift technology.Data from the assay component NVS_ENZ_hSGK1 was analyzed into 1 assay endpoint. This assay endpoint, NVS_ENZ_hSGK1, was analyzed in the positive analysis fitting direction relative to DMSO as the negative control and baseline of activity. Using a type of enzyme reporter, loss-of-signal activity can be used to understand changes in the enzymatic activity as they relate to the gene SGK1. Furthermore, this assay endpoint can be referred to as a primary readout, because this assay has produced […] where this one serves a enzymatic activity function. To generalize the intended target to other relatable targets, this assay endpoint is annotated to the kinase intended target family, where the subfamily is serine/threonine kinase. […]

Sequences of proteins named here, by UniProt entry; tags and fusion partners are left off. A change or cut given only in a name is not applied to a line headed by its entry.
UniProt O00141: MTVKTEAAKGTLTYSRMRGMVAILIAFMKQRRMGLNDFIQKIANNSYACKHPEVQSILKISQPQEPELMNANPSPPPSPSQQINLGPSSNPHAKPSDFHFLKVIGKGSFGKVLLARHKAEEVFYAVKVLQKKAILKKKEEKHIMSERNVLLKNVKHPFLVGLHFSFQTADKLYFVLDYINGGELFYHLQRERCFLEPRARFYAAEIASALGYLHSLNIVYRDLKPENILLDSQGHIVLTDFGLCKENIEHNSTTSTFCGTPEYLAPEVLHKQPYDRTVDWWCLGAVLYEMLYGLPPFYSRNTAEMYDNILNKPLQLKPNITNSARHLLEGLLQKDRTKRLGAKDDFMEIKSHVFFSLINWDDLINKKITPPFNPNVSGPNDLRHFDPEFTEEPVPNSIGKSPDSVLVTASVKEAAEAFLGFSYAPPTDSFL

The entries are a selection whose mix differs from that of the whole data set. Results filed as inconclusive are left out. Active and inactive are the calls of the source. Rule for the calls: active = hit-call score of the fitted dose curve at least 0.9, where 1 is the maximum; inconclusive = response in the unintended direction; inactive = score below 0.9.

For the compound `S=C(S)NCCNC(=S)S.[Mn+2].[S-]C([S-])=NCCN=C([S-])[S-].[Zn+2]`, the AC50 is active: 11.4 µM.

The values are drawn from PubChem BioAssay AID2283220 (EPA ToxCast).
